Experiments:
[1] = after loss in the gut; ref Lennernäs, 2003; cited from earlier work
[2] = Steady-state plasma pharmacokinetics of atorvastatin, 2-hydroxyatorvastatin and atorvastatin lactone after atorvastatin 40 mg once daily for 7 days, alone or co-administered with tegoprazan 50 mg or vonoprazan 20 mg

- Increase of AUCτ ([2]; atorvastatin co-administered with tegoprazan, not statistically significant): 3%
- Increase of AUCτ ([2]; atorvastatin co-administered with vonoprazan compared to atorvastatin alone): 28%
- within-subject CV of AUCτ ([2]; this study, multiple doses for 7 days (data not shown)): 11%
SMILES: CC(C)c1c(C(=O)Nc2ccccc2)c(-c2ccccc2)c(-c2ccc(F)cc2)n1CC[C@@H](O)C[C@@H](O)CC(=O)O [Atorvastatin, atorvastatin]
- fraction of the remaining amount lost in the liver [1]: 42%

Source: article PMC8632694 (Frontiers in Pharmacology, 2021)
